# From the supplement of paper PMC6411743
# ± gives the standard deviation of the averaged measurements. The entries are a selection whose mix differs from that of the whole data set.
# Assays:
# Test in all cases: NP40-soluble protein abundance relative to vehicle (solubility fold change) (ratio); higher = more soluble protein in presence of AMP-PNP
# ACOX3 = target: T1, ACOX3 (UniProt O15254)
# T1 sequence (whole entry): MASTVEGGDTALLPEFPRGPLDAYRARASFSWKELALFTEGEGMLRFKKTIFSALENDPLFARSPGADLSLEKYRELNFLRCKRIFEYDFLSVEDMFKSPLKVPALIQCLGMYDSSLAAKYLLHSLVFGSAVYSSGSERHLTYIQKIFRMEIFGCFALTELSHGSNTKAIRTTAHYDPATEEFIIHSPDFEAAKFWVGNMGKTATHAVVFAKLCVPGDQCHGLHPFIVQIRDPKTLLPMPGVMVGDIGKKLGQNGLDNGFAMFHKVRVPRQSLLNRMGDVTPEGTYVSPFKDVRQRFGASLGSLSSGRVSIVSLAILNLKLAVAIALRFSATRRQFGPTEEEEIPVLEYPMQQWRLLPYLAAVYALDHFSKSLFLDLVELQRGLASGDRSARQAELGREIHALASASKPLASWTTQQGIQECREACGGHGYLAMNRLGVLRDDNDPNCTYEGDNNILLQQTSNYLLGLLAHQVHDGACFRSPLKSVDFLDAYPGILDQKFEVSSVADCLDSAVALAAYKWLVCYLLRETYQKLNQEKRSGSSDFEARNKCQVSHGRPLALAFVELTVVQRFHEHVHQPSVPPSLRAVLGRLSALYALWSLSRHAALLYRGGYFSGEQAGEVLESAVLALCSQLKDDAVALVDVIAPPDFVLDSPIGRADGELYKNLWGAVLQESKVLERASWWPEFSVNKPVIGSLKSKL
# How it was run: (§1)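 Across three independent experiments, values are fold changes against the detergent-processed vehicle for each replicate, based on vsn-normalised intensities. The samples were Jurkat crude lysate treated with eight concentrations (0.1 to 10 mM) for 10 min at room temperature and then 3 min at 37 °C. Lysate was solubilised with 0.8% NP40 and benzonase, ultracentrifuged, and the supernatant analysed by TMT-labelled LC-MS/MS.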
# ADAM10 = target: T2, ADAM10 (UniProt O14672)
# T2 sequence (whole entry): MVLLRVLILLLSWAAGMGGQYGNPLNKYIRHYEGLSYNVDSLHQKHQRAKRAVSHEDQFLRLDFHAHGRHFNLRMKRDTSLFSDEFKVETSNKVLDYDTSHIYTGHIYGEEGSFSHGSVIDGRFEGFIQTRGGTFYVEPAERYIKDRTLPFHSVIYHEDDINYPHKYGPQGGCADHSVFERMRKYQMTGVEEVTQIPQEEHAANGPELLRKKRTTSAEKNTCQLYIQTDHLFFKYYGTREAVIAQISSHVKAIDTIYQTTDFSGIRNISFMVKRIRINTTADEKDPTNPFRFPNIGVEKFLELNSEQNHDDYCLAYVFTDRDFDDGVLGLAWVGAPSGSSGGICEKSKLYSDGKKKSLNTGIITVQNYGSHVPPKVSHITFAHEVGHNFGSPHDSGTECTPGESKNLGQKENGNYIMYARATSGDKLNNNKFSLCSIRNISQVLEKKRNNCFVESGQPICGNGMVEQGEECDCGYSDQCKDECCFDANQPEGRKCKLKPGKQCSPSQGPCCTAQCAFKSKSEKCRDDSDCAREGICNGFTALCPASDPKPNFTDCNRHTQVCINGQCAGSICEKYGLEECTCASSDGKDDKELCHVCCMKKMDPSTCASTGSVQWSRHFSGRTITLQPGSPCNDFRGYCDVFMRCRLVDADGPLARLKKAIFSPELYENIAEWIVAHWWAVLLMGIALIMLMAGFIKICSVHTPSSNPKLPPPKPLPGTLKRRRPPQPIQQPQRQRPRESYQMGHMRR
# How it was run: as §1
# NVL = target: T3, NVL (UniProt O15381)
# T3 sequence (whole entry): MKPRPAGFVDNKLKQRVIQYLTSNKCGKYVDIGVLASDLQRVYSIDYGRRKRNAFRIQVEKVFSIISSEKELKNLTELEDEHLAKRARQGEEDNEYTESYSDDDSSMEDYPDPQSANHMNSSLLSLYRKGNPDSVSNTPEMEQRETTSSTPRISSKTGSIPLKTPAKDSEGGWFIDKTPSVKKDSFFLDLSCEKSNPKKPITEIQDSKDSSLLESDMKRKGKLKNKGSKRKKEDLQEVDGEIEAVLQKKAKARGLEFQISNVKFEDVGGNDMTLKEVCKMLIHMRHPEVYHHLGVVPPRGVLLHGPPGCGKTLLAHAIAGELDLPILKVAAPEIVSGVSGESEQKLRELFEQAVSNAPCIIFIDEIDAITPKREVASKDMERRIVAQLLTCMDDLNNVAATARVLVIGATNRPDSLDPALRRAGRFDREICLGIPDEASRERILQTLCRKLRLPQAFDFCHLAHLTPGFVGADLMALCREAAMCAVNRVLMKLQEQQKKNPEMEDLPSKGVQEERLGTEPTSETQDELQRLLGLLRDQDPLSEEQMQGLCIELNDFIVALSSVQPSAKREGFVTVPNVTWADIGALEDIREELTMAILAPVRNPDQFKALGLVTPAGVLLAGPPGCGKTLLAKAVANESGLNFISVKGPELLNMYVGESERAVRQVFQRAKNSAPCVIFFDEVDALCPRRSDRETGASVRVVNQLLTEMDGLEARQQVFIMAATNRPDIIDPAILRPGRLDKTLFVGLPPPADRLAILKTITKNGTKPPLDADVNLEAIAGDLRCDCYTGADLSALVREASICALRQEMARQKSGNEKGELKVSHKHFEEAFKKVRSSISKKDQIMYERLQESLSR
# How it was run: as §1
# RFXAP = target: T4, RFXAP (UniProt O00287)
# T4 sequence (whole entry): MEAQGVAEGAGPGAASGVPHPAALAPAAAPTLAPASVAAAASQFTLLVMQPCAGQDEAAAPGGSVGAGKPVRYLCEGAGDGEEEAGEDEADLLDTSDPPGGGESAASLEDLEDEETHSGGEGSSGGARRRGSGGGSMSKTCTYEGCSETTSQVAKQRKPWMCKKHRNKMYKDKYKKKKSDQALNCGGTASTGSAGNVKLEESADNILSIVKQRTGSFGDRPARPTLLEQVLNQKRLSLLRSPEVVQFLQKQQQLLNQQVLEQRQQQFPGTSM
# How it was run: as §1
# SNAP23 = target: T5, SNAP23 (UniProt O00161); settings: concentration: 1mM
# T5 sequence (whole entry): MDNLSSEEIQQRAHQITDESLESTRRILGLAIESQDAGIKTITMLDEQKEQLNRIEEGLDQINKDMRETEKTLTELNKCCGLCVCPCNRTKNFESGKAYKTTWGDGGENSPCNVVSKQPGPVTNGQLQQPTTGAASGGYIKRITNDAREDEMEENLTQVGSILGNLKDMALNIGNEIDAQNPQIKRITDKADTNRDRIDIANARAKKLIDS
# How it was run: as §1
structure (smiles),measurement,setting,value
Nc1ncnc2c1ncn2[C@@H]1O[C@H](COP(=O)(O)OP(=O)(O)NP(=O)(O)O)[C@@H](O)[C@H]1O [adenylyl imidodiphosphate],NP40-soluble protein abundance,ACOX3; concentration: 1mM,0.977 ± 0.053
same,NP40-soluble protein abundance,ACOX3; concentration: 2mM,0.928 ± 0.076
same,NP40-soluble protein abundance,ACOX3; concentration: 4mM,0.967 ± 0.031
same,NP40-soluble protein abundance,ACOX3; concentration: 6mM,0.957 ± 0.057
same,NP40-soluble protein abundance,ACOX3; concentration: 8mM,0.972 ± 0.07
same,NP40-soluble protein abundance,ACOX3; concentration: 10mM,0.918 ± 0.089
same,NP40-soluble protein abundance,ADAM10; concentration: 1mM,0.981 ± 0.031
same,NP40-soluble protein abundance,ADAM10; concentration: 2mM,1.04 ± 0.059
same,NP40-soluble protein abundance,ADAM10; concentration: 4mM,0.9979 ± 0.0066
same,NP40-soluble protein abundance,ADAM10; concentration: 6mM,1.02 ± 0.027
same,NP40-soluble protein abundance,ADAM10; concentration: 8mM,0.998 ± 0.037
same,NP40-soluble protein abundance,ADAM10; concentration: 10mM,1.02 ± 0.0085
same,NP40-soluble protein abundance,NVL; concentration: 1mM,1.07 ± 0.033
same,NP40-soluble protein abundance,NVL; concentration: 2mM,1.12 ± 0.038
same,NP40-soluble protein abundance,NVL; concentration: 4mM,1.16 ± 0.038
same,NP40-soluble protein abundance,NVL; concentration: 6mM,1.13 ± 0.052
same,NP40-soluble protein abundance,NVL; concentration: 8mM,1.11 ± 0.038
same,NP40-soluble protein abundance,NVL; concentration: 10mM,1.14 ± 0.042
same,NP40-soluble protein abundance,RFXAP; concentration: 1mM,1 ± 0.031
same,NP40-soluble protein abundance,RFXAP; concentration: 2mM,1.04 ± 0.047
same,NP40-soluble protein abundance,RFXAP; concentration: 4mM,1.01 ± 0.031
same,NP40-soluble protein abundance,RFXAP; concentration: 6mM,1.04 ± 0.035
same,NP40-soluble protein abundance,RFXAP; concentration: 8mM,1.01 ± 0.041
same,NP40-soluble protein abundance,RFXAP; concentration: 10mM,1.04 ± 0.044
same,NP40-soluble protein abundance,SNAP23,1 ± 0.035

# Random excerpt: two records from the list, in no set order.
structure (smiles),measurement,setting,value
Nc1ncnc2c1ncn2[C@@H]1O[C@H](COP(=O)(O)OP(=O)(O)NP(=O)(O)O)[C@@H](O)[C@H]1O [adenylyl imidodiphosphate],NP40-soluble protein abundance,ACOX3; concentration: 4mM,0.967 ± 0.031
same,NP40-soluble protein abundance,ADAM10; concentration: 2mM,1.04 ± 0.059
